Results are given in words; binding and its absence hold for the method and conditions named. In cells and extracts the contact can be indirect. Binding calls can cover weak binding; strength is not graded here. For part of these data: Tags and fused reporters may be left off the sequences shown.
Columns and labels:
Assay in all cases: pull-down; 10 μg GST fusion protein on 10 μl glutathione-Sepharose beads incubated with 5 μl nonradioactive in vitro-translated protein in 500 μl binding buffer, 2 h at 4 °C; washed five times with 100 mM NaCl, 20 mM HEPES pH 7.9, 0.1% NP-40, 5 mM MgCl2, 0.5 mM PMSF; bound protein detected by western blotting; only the target purified
GST–Nrf2 = molecular target: T1, GST–Nrf2 (UniProt Q60795)
T1 sequence: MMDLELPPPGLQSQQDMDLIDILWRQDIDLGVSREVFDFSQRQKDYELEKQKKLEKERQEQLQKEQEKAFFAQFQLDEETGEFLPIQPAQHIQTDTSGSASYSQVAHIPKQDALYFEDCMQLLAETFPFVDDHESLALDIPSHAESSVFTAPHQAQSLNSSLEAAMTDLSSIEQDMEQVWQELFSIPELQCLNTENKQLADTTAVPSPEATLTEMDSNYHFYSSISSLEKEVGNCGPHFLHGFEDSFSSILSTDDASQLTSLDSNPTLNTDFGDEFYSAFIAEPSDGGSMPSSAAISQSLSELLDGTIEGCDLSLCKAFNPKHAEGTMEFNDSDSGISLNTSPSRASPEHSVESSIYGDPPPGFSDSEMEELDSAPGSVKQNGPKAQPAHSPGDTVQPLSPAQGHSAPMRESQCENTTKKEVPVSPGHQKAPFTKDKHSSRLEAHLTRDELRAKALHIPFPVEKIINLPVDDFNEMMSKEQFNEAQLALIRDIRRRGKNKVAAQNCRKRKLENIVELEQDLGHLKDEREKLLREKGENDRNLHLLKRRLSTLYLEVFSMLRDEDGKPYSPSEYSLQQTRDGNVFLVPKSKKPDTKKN

GST–MafK (rat) = molecular target: GST–MafK (rat)
[1] = molecular target: GST–MafK CT78 (aa 78–156) (rat)

| Molecule | binding (GST–Nrf2) | binding (GST–MafK (rat)) | binding [1] |
| --- | --- | --- | --- |
| in vitro-translated MafK (rat) | binds | – | – |
| in vitro-translated Nrf2 (protein, UniProt Q60795 1-597) MMDLELPPPGLQSQQDMDLIDILWRQDIDLGVSREVFDFSQRQKDYELEKQKKLEKERQEQLQKEQEKAFFAQFQLDEETGEFLPIQPAQHIQTDTSGSASYSQVAHIPKQDALYFEDCMQLLAETFPFVDDHESLALDIPSHAESSVFTAPHQAQSLNSSLEAAMTDLSSIEQDMEQVWQELFSIPELQCLNTENKQLADTTAVPSPEATLTEMDSNYHFYSSISSLEKEVGNCGPHFLHGFEDSFSSILSTDDASQLTSLDSNPTLNTDFGDEFYSAFIAEPSDGGSMPSSAAISQSLSELLDGTIEGCDLSLCKAFNPKHAEGTMEFNDSDSGISLNTSPSRASPEHSVESSIYGDPPPGFSDSEMEELDSAPGSVKQNGPKAQPAHSPGDTVQPLSPAQGHSAPMRESQCENTTKKEVPVSPGHQKAPFTKDKHSSRLEAHLTRDELRAKALHIPFPVEKIINLPVDDFNEMMSKEQFNEAQLALIRDIRRRGKNKVAAQNCRKRKLENIVELEQDLGHLKDEREKLLREKGENDRNLHLLKRRLSTLYLEVFSMLRDEDGKPYSPSEYSLQQTRDGNVFLVPKSKKPDTKKN | – | binds | binds |
